# Source: PubChem BioAssay AID1347076 (National Center for Advancing Translational Sciences (NCATS), 2019)
# Among all 400,000 compounds or so, about 13,000 (3.2%) were called active. Inconclusive means that the source gave no clear call. Such entries were picked first, then a sample of the others. Calls follow the shape of the dose curve; as a rule, active = well fitted cell-killing curve with a large enough effect; inconclusive = small, poorly fitted or top-dose-only effect, or effect the other way; inactive = flat fitted curve, though single readings scatter. A potency beside an inconclusive call is a rough fit, not a confirmed value.
# Assay: qHTS assay for MDR1-selective chemotherapeutics: Primary screen using the drug-selected MDR subline cells KB-V1; also: nearly all actives have a fitted effect of over 60% in size
# Details: KB-V1 MDR cells viability, CellTiter-Glo, 72 h; activity change, negative = cytotoxicity: at 46.1 µM (top of the series)
# Outline: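 Compound-treated KB-V1 multidrug-resistant cells, 72 h, 37 degrees C; viability by CellTiter-Glo. Fitted qHTS curves give the values.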
# % is scaled to controls: 0 for no effect and ±100 for the full control effect; potency is read from the fitted curve at half-maximal effect.
Compound,Potency,"activity change, negative = cytotoxicity"
COc1cc(OC)c(-c2nn3c(-c4cc(C)[nH]n4)nnc3s2)cc1OC,"inconclusive: 29.1 µM [rising, single point]",
O=C(OCC(=O)N1CCN(C(=O)c2ccco2)CC1)c1cc(-c2ccc(Cl)c(Cl)c2Cl)nc2ccccc12,active: 20.6 µM,
CC(=O)Nc1ccc(S(=O)(=O)Oc2ccc(C=O)cc2)cc1,"inconclusive: 14.6 µM [cytotoxic, partial curve]",
Cc1cccc(NC(=S)/N=C(\N)Nc2nc(C)c3ccccc3n2)c1,"inconclusive: 16.4 µM [cytotoxic, single point]",
COc1ccc(OCCCC(=O)OCC(=O)Nc2nnc(-c3ccccc3)o2)cc1,,inconclusive: -31.2% [cytotoxic]
O=C(NCc1nc(-c2ccc(C(F)(F)F)cc2)no1)Nc1ccc(OC(F)(F)F)cc1,"inconclusive: 0.082 µM [rising, full curve]",
Cc1cc(S(=O)(=O)NCCCN2CCOCC2)c(Cl)cc1Cl,"inconclusive: 18.4 µM [cytotoxic, single point]",
C=CCNCC(=O)Nc1ccccc1SCC(=O)Nc1ccsc1C(=O)OC,"inconclusive: 3.26 µM [cytotoxic, partial curve, poor fit]",
Cc1cc(C(=O)N2CCN(c3ccc(C(F)(F)F)cn3)CC2)c(C)o1,"inconclusive: 8.2 µM [cytotoxic, partial curve]",
Cc1cnc(C(=O)NC(Cc2ccccc2)c2ccccc2)cn1 (stereo not drawn),,inactive: 5.56%
CCN(CC(=O)Nc1c(F)cccc1F)C(=O)c1cnc(C)cn1,"inconclusive: 2.59 µM [rising, full curve]",
Cc1ccc(S(=O)(=O)N2CCCc3cc(NS(=O)(=O)c4cc(C)ccc4C)ccc32)cc1,"inconclusive: 18.4 µM [cytotoxic, single point]",
CCOC(=O)CSc1ccc(C(=O)NCCCN2CCOCC2)cc1[N+](=O)[O-],"inconclusive: 16.4 µM [rising, single point]",
CCSc1ccccc1C(=O)Nc1ccc(S(=O)(=O)NC(C)=O)cc1,"inconclusive: 29.1 µM [rising, single point]",
CN1CCN(S(=O)(=O)c2cccs2)CC1,"inconclusive: 14.6 µM [rising, single point]",
COc1ccc2c(c1)C(=O)N1[C@H]3c4cc(Br)ccc4OC[C@@H]3[C@H](c3ccccc3)[C@]1(C)C(=O)N2,"inconclusive: 29.1 µM [cytotoxic, single point]",
CCCNC(=O)C(Sc1ccccc1)c1ccccc1 (stereo not drawn),"inconclusive: 29.1 µM [cytotoxic, single point]",
CCCOc1ccc(S(=O)(=O)NNC(=O)c2cc3ccccc3o2)cc1,"inconclusive: 2.91 µM [rising, partial curve, poor fit]",
O=C(CC1NCCc2ccccc21)Nc1ccccc1 (stereo not drawn),,inactive: 3.51%
O=C(C1CC1)N1CCc2cc(S(=O)(=O)NCCCN3CCCCC3)ccc21,"inconclusive: 29.1 µM [rising, single point]",
Cc1ccccc1NC(=O)/C(=C/c1ccco1)c1ccccc1,"inconclusive: 16.4 µM [cytotoxic, single point]",

# Some of the entries so far, with bars between the fields:
Compound | Potency | activity change, negative = cytotoxicity
COc1ccc(OCCCC(=O)OCC(=O)Nc2nnc(-c3ccccc3)o2)cc1 |  | inconclusive: -31.2% [cytotoxic]
O=C(NCc1nc(-c2ccc(C(F)(F)F)cc2)no1)Nc1ccc(OC(F)(F)F)cc1 | inconclusive: 0.082 µM [rising, full curve] | 
Cc1cc(S(=O)(=O)NCCCN2CCOCC2)c(Cl)cc1Cl | inconclusive: 18.4 µM [cytotoxic, single point] | 
C=CCNCC(=O)Nc1ccccc1SCC(=O)Nc1ccsc1C(=O)OC | inconclusive: 3.26 µM [cytotoxic, partial curve, poor fit] | 
Cc1cc(C(=O)N2CCN(c3ccc(C(F)(F)F)cn3)CC2)c(C)o1 | inconclusive: 8.2 µM [cytotoxic, partial curve] | 
Cc1cnc(C(=O)NC(Cc2ccccc2)c2ccccc2)cn1 (stereo not drawn) |  | inactive: 5.56%

# Further compounds:

Compound,Potency,"activity change, negative = cytotoxicity"
COc1ccc(S(=O)(=O)N(CC(=O)O)c2ccc(C)cc2)cc1,,inactive: 13.3%
COc1ccc(-c2coc3cc4oc(=O)cc(C)c4cc23)cc1F,"inconclusive: 8.2 µM [cytotoxic, partial curve]",
CCN1C(=O)[C@H]2[C@@H](c3ccc(-c4ccc5c(c4)OCO5)cc3)N3CCC[C@@]3(C(=O)OC)[C@H]2C1=O,"inconclusive: 29.1 µM [cytotoxic, single point]",
Cc1cccc(OCc2nnc(SCC(=O)N3c4ccccc4CCc4ccccc43)o2)c1,"inconclusive: 6.51 µM [cytotoxic, partial curve, poor fit]",
COc1cc(C(=S)N2CCCC2)ccc1OCc1ccccc1,"inconclusive: 25.9 µM [cytotoxic, single point]",
O=C(Nn1c(Cc2ccccc2)nc2ccccc2c1=O)c1c(O)c2cccc3c2n(c1=O)CCC3,"inconclusive: 18.4 µM [cytotoxic, single point]",
Cc1ccc(C2C(C(=O)c3ccco3)=C(O)C(=O)N2c2nnc(C)s2)cc1 (stereo not drawn),"inconclusive: 20.6 µM [cytotoxic, single point]",
CCOC(=O)c1c(C)[nH]c(C(=O)COC(=O)c2ccccc2NC(=O)c2ccco2)c1C,"inconclusive: 5.17 µM [cytotoxic, full curve]",
Cc1ccc(C(=O)c2oc3ccccc3c2NC(=O)COc2ccc(C(C)C)cc2)cc1,"inconclusive: 25.9 µM [rising, single point]",
N#Cc1ccc(OCC(=O)N2CCN(C(=O)c3ccco3)CC2)cc1,"inconclusive: 32.6 µM [cytotoxic, single point]",
Cc1ccccc1S(=O)Cc1ccc(C(=O)N2CCN(C3CCCCC3)CC2)o1 (stereo not drawn),"inconclusive: 14.6 µM [cytotoxic, partial curve, poor fit]",
O=C(NC(=S)Nc1ccccc1N1CCCC1)c1ccco1,"inconclusive: 16.4 µM [cytotoxic, single point]",
COc1ccc(CNC(=O)CCSc2nc(-c3ccc4c(c3)OCO4)cc(C(F)(F)F)n2)cc1,"inconclusive: 8.2 µM [cytotoxic, partial curve]",
CCOc1ccc(NC(=O)c2cc(OC)nc3ccccc23)cc1,"inconclusive: 1.16 µM [cytotoxic, full curve, poor fit]",
O=C(NC1CCCCC1)C(c1ccc(F)cc1)N(CCc1ccccc1)C(=O)CN1C(=O)c2ccccc2S1(=O)=O (stereo not drawn),"inconclusive: 20.6 µM [cytotoxic, partial curve, poor fit]",
CCOc1ccc(N(CC(=O)NC2CCCCC2)S(=O)(=O)c2ccccc2)cc1,"inconclusive: 5.17 µM [cytotoxic, partial curve]",
COc1ccc2c(c1)[C@H]1[C@H](CO2)[C@H](c2ccccc2)[C@]2(C)C(=O)Nc3cc(F)ccc3C(=O)N12,"inconclusive: 8.2 µM [cytotoxic, partial curve]",
CCOC(=O)CN1C(=O)C(O)(CC(=O)c2ccco2)c2ccccc21 (stereo not drawn),"inconclusive: 29.1 µM [cytotoxic, single point]",
NS(=O)(=O)c1ccc(Sc2nc3ccccc3s2)c([N+](=O)[O-])c1,"inconclusive: 13 µM [cytotoxic, partial curve]",
CCOc1cccc(C2C(C(=O)c3ccc(C)o3)=C(O)C(=O)N2Cc2ccncc2)c1 (stereo not drawn),,inactive: 0%
COc1ccc(-c2nc3c(Cl)cc(C(F)(F)F)cn3c2Cc2ccsc2)cc1OC,,inactive: 8.85%

Compound,Potency,"activity change, negative = cytotoxicity"
C[C@H](CO)N1C[C@H](C)[C@@H](CN(C)Cc2ccc(-c3ccccc3)cc2)Oc2c(NS(=O)(=O)c3cccs3)cccc2C1=O,,inactive: 24.5%
C[C@@H]1CN([C@H](C)CO)C(=O)Cc2cc(NC(=O)Nc3ccccc3)ccc2O[C@@H]1CN(C)Cc1ccc2c(c1)OCO2,,inactive: -15.6%
COc1ccc(C(=O)NCC2(c3ccccc3)CCCC2)c(OC)c1,,inactive: 2.94%
COc1ccccc1N(CC(=O)NCc1ccco1)S(=O)(=O)c1ccc(C)cc1,,inactive: -25.2%
O=c1c2c3nc4ccccc4nc3n(/N=C/c3ccncc3)c2ncn1-c1ccccc1,,inactive: 9.41%
COc1ccc(S(=O)(=O)N2CCN(c3ccc4nnc(-c5ccc(F)cc5)n4n3)CC2)cc1,"inconclusive: 29.1 µM [cytotoxic, single point]",
COc1ccc(N2CCN(C(=O)COc3ccc4c(C)c(C)c(=O)oc4c3C)CC2)cc1,"inconclusive: 8.2 µM [cytotoxic, single point]",
Cc1c(C(=O)OCC(=O)NCCN2C(=O)CSC2=O)cccc1[N+](=O)[O-],"inconclusive: 25.9 µM [cytotoxic, single point]",
COc1ccc(CCNC(=O)CCCn2c(SCC#N)nc3ccccc3c2=O)cc1OC,"inconclusive: 29.1 µM [cytotoxic, single point]",
CC(C)CNC(=O)CSc1nc2nn(-c3ccccc3)c(=O)c-2c2n1CCCCC2,"inconclusive: 10.3 µM [cytotoxic, partial curve]",
COc1ccc(/C=N/NC(=O)c2nc(-c3ccccc3)cc(-c3ccccc3)n2)cc1O,active: 16.4 µM,
O=C(NCc1cccc(Cl)c1)C1Cc2c(-c3cccc(F)c3)ccnc2O1 (stereo not drawn),"inconclusive: 23.1 µM [cytotoxic, single point]",
O=[N+]([O-])c1cc(C(F)(F)F)ccc1Cl,,inactive: 5.2%
CC1CCN(S(=O)(=O)c2ccc3c(ccn3CCC(=O)NCc3ccccc3F)c2)CC1,,inactive: -11%
Cc1csc(/C(=N/OC(=O)c2ccco2)C(N)=O)n1,,inactive: 16.4%
C#CCN(C[C@@H]1[C@@H](OC(=O)NCc2ccc(OC)c(OC)c2)[C@@H](OC(=O)NCc2ccc(OC)c(OC)c2)CN(C(=O)OC(C)C)N1C(=O)OC(C)C)S(=O)(=O)c1ccc(C)cc1,"inconclusive: 20.6 µM [rising, single point]",
COc1ccc(C(C(=O)NC(C)(C)C)n2c(=O)c(-c3ccco3)nc3ccccc32)cc1 (stereo not drawn),"inconclusive: 9.2 µM [cytotoxic, partial curve]",
COC(=O)c1c(C(=O)c2ccc(Br)cc2)n(C)c2ccccc12,active: 20.6 µM,
Cc1ccccc1N=C1C(=O)Nc2ccccc21,"inconclusive: 5.17 µM [rising, partial curve]",
Cc1ccc(OCCC(=O)OCC(=O)NCCNC(=O)COC(=O)CCOc2ccc(C)cc2)cc1,,inactive: 25%
C=CC(=O)N1C/C(=C/c2ccccc2)C(=O)/C(=C\c2ccccc2)C1,"inconclusive: 2.91 µM [cytotoxic, partial curve, poor fit]",
